Data as given in paper PMC3394733.
Results are given in words; binding and its absence hold for the method and conditions named. Where a sequence is shown, tags or fusion partners need not be part of it.

T1: GST-Pef1p (S. cerevisiae) (UniProt P53238)
T1 sequence: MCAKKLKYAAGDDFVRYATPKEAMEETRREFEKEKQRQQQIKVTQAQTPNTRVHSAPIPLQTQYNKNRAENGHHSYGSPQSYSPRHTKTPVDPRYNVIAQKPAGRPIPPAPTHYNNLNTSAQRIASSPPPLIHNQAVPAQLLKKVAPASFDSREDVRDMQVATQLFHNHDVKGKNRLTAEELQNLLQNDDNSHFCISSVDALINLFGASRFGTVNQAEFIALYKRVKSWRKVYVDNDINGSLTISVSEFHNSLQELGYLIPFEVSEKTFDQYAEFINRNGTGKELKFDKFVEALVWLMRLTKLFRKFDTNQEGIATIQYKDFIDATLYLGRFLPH


Molecular target: T1, GST-Pef1p (S. cerevisiae)
Experiment: pull-down; GST-Pef1p or GST (40 nM) and MBP-Sec31p fragment (80 nM), glutathione-Sepharose beads, 4°C 2 h, 20 mM HEPES-KOH pH 8.0, 160 mM potassium acetate, 0.1% Triton X-100; CaCl2 or EGTA not told for this experiment; immunoblot with anti-MBP; both purified

| Binder | binding |
| --- | --- |
| MBP-Sec31(1–769) (domain or fragment, UniProt P38968 1-769) MVKLAEFSRTATFAWSHDKIPLLVSGTVSGTVDANFSTDSSLELWSLLAADSEKPIASLQVDSKFNDLDWSHNNKIIAGALDNGSLELYSTNEANNAINSMARFSNHSSSVKTVKFNAKQDNVLASGGNNGEIFIWDMNKCTESPSNYTPLTPGQSMSSVDEVISLAWNQSLAHVFASAGSSNFASIWDLKAKKEVIHLSYTSPNSGIKQQLSVVEWHPKNSTRVATATGSDNDPSILIWDLRNANTPLQTLNQGHQKGILSLDWCHQDEHLLLSSGRDNTVLLWNPESAEQLSQFPARGNWCFKTKFAPEAPDLFACASFDNKIEVQTLQNLTNTLDEQETETKQQESETDFWNNVSREESKEKPTVFHLQAPTWYGEPSPAAHWAFGGKLVQITPDGKGVSITNPKISGLESNTTLSEALKTKDFKPLINQRLVKVIDDVNEEDWNLLEKLSMDGTEEFLKEALAFDNDESDAQDDANNEKEDDGEEFFQQIETNFQPEGDFSLSGNIEQTISKNLVSGNIKSAVKNSLENDLLMEAMVIALDSNNERLKESVKNAYFAKYGSKSSLSRILYSISKREVDDLVENLDVSQWKFISKAIQNLYPNDIAQRNEMLIKLGDRLKENGHRQDSLTLYLAAGSLDKVASIWLSEFPDLEDKLKKDNKTIYEAHSECLTEFIERFTVFSNFINGSSTINNEQLIAKFLEFINLTTSTGNFELATEFLNSLPSDNEEVKTEKARVLIASGKSLPAQNPATATTSKAKYTNAKTN | no binding (tested: 80 nM fragment, 40 nM GST-Pef1p) |
| MBP-Sec31(1–490) (domain or fragment, UniProt P38968 1-490) MVKLAEFSRTATFAWSHDKIPLLVSGTVSGTVDANFSTDSSLELWSLLAADSEKPIASLQVDSKFNDLDWSHNNKIIAGALDNGSLELYSTNEANNAINSMARFSNHSSSVKTVKFNAKQDNVLASGGNNGEIFIWDMNKCTESPSNYTPLTPGQSMSSVDEVISLAWNQSLAHVFASAGSSNFASIWDLKAKKEVIHLSYTSPNSGIKQQLSVVEWHPKNSTRVATATGSDNDPSILIWDLRNANTPLQTLNQGHQKGILSLDWCHQDEHLLLSSGRDNTVLLWNPESAEQLSQFPARGNWCFKTKFAPEAPDLFACASFDNKIEVQTLQNLTNTLDEQETETKQQESETDFWNNVSREESKEKPTVFHLQAPTWYGEPSPAAHWAFGGKLVQITPDGKGVSITNPKISGLESNTTLSEALKTKDFKPLINQRLVKVIDDVNEEDWNLLEKLSMDGTEEFLKEALAFDNDESDAQDDANNEKEDDGEEF | no binding (tested: 80 nM fragment, 40 nM GST-Pef1p) |
